# Measurements published in PMC7819943, “Rice protein-binding microarrays: a tool to detect cis-acting elements near promoter regions in rice”.
# Sequences of proteins named here, by UniProt entry; tags and fusion partners are left off.
# UniProt Q0JBA9, entry or part of it: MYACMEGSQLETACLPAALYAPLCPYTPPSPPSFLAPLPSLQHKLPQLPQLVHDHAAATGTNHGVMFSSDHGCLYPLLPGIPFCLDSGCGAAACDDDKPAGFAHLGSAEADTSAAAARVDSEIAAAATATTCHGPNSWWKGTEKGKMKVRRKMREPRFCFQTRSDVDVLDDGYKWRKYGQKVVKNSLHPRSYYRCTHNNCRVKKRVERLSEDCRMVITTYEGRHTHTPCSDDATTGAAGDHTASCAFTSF
# The list shows a part of the results.
# Target: OsWRKY34 (Oryza sativa, UniProt Q0JBA9 1-250)
# Experiment: protein-binding microarray (RPBM); PBS, 2% BSA, 51.3 ng/ul salmon testes DNA, 50 uM zinc acetate, 200 nM TF, 25 C, 1 h; high values mean tight binding
# Conditions: protein: recombinant; tags: N-terminal polyhistidine and DsRed monomer fusion (pET32a); label: CyDye5-dUTP incorporated in the synthesized complementary strand; 3' TTTTT single-stranded linker to array surface; dsDNA, one strand shown
# Outline: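 Polyhistidine-tagged DsRed fusions of transcription factors, joined at the N-terminus, were expressed in E. coli BL21-CodonPlus and isolated on Ni–NTA. They were incubated at 200 nM for 1 h at 25 °C on a custom Agilent array, double-stranded and BSA-blocked, in PBS with 2% BSA, salmon testes DNA and 50 µM zinc acetate. The binding signal is per-feature fluorescence intensity (arbitrary units) read on an Axon 4000B scanner after washing.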
row,Sequence,binding signal
1,TTCTGACAATCCGACAAGCTGCCCGTGCTCTACTTGCAATCGGAGTCACCTAGTGCAG,8500 fluorescence intensity (a.u.)
2,CTTGGGCCTGGGTTGGACACGCGCTTCCTCTCCCAATTTGCGGAGTCACCTAGTGCAG,9260 fluorescence intensity (a.u.)
3,CTTTGTTCAAACGAGGTTTGGACTGTTGTGGTTCATTAAACGGAGTCACCTAGTGCAG,10000 fluorescence intensity (a.u.)
4,TTCCGTTTCTGTTCCGTTTGGTTTTTCCTTGTTCTTTCGGCGGAGTCACCTAGTGCAG,12900 fluorescence intensity (a.u.)
5,CAATATCCATCGTGCACTGACGAAACCAGCTGCATTCTGCCGGAGTCACCTAGTGCAG,11100 fluorescence intensity (a.u.)
6,ATTTCTTGAACAGTTAAATACTTATAAATCCTTCACTTTTCGGAGTCACCTAGTGCAG,8050 fluorescence intensity (a.u.)
7,CTATTTACACGGTCATATAGAGTTTTGGATCCATCATCATCGGAGTCACCTAGTGCAG,8370 fluorescence intensity (a.u.)
8,GTTTATGACCAGTCAATTTCGTGCCTGTTTTTTTTTTTTTCGGAGTCACCTAGTGCAG,13400 fluorescence intensity (a.u.)
9,AATGTATTTGTCTTATGTTAAATATATTACTACTCTTTTTCGGAGTCACCTAGTGCAG,8080 fluorescence intensity (a.u.)
10,TACATGTTTTATAGAGAGCACCTTACTTTATCATTGCGGGCGGAGTCACCTAGTGCAG,9390 fluorescence intensity (a.u.)
11,TTGTGGCCGTTACTCCAACCCTATCATACATGCGGAATATCGGAGTCACCTAGTGCAG,9880 fluorescence intensity (a.u.)
12,ACTAACCCTAGCTCGCCTGGCGCCTCCTCGCGCAAACCCTCGGAGTCACCTAGTGCAG,10300 fluorescence intensity (a.u.)
13,CCTCTTGTGTCTATCCATCAACATTGAACAAAGTTGTCCTCGGAGTCACCTAGTGCAG,8630 fluorescence intensity (a.u.)
14,ATGGGGTCTTCAGTTATTTTAGAAGTGGAAATTTTATAGTCGGAGTCACCTAGTGCAG,8250 fluorescence intensity (a.u.)
15,TCATCATCATCGTCGTCGTCATCGTCTTCTTGAGCAAACTCGGAGTCACCTAGTGCAG,8610 fluorescence intensity (a.u.)
16,CCGTTTTAAAATGTTTGACACCGTTGACTTTTTAGTACATCGGAGTCACCTAGTGCAG,26100 fluorescence intensity (a.u.)
17,ACTGTGGTTTCTAGTGGGTTTTATTATTTTATAATTTGTACGGAGTCACCTAGTGCAG,8480 fluorescence intensity (a.u.)
18,GCCCAACGCGCTCCAACTCGCCGTCAACGACCACCTTGGTCGGAGTCACCTAGTGCAG,8510 fluorescence intensity (a.u.)
19,CGCACGGTTGGGTTGGTTTCCTCTTCTTCGCTCTTGAGAGCGGAGTCACCTAGTGCAG,9390 fluorescence intensity (a.u.)
20,ACCGCCTCCATCCATCCGCCGCGTCTCGCCGCCGGCCGCACGGAGTCACCTAGTGCAG,9000 fluorescence intensity (a.u.)
21,AATCCGCGCTAATCACCCACTAATACTCTTGTTTAATCACCGGAGTCACCTAGTGCAG,8870 fluorescence intensity (a.u.)

# Some of the entries above, reformatted.
row | Sequence | binding signal
5 | CAATATCCATCGTGCACTGACGAAACCAGCTGCATTCTGCCGGAGTCACCTAGTGCAG | 11100 fluorescence intensity (a.u.)
19 | CGCACGGTTGGGTTGGTTTCCTCTTCTTCGCTCTTGAGAGCGGAGTCACCTAGTGCAG | 9390 fluorescence intensity (a.u.)

# Next part:

row,Sequence,binding signal
1,GTGGGTGTTTTTGATTGGAGAATCTGAGCGGCGAGTAGTGCGGAGTCACCTAGTGCAG,8180 fluorescence intensity (a.u.)
2,CTGCTCTTTTCATTTACAAATCATGTCCTCATGTTGCAGTCGGAGTCACCTAGTGCAG,8360 fluorescence intensity (a.u.)
3,TCTTATTTGACCATGATGTTTGTAAGGTGCATGTTCTGGTCGGAGTCACCTAGTGCAG,8540 fluorescence intensity (a.u.)
4,AAACTCCTTGCAAACTGATTATTTTACACTGCATCATACTCGGAGTCACCTAGTGCAG,9140 fluorescence intensity (a.u.)
5,CCATCCTAGTTGTGACAAACATTACACTTTTCTCATGTAACGGAGTCACCTAGTGCAG,8050 fluorescence intensity (a.u.)
6,TCTCCCTTTGACTGGACCATGGACTGCAACAAGCAACAACCGGAGTCACCTAGTGCAG,8260 fluorescence intensity (a.u.)
7,CCTTTGCCTCGCCATCCTGCTGCTCGTGCCCCTCCGCCCACGGAGTCACCTAGTGCAG,10900 fluorescence intensity (a.u.)
8,CTTTCTCCGTCCGTCCATTGTCACTTGCATCATCGTCGTACGGAGTCACCTAGTGCAG,13900 fluorescence intensity (a.u.)
9,CAACGCCAAGACGAGTGGCGGCTGAACAGGGGAGGGGCGGCGGAGTCACCTAGTGCAG,9970 fluorescence intensity (a.u.)
10,CACACAGCATCGTTTGGATTAATCACCGAACCGATCGACCCGGAGTCACCTAGTGCAG,8400 fluorescence intensity (a.u.)
11,ACAGTGACTCTTTTGTATATTATTCTGAAGTCCTCTGACTCGGAGTCACCTAGTGCAG,9230 fluorescence intensity (a.u.)
12,TCTTATCACATTATCACCATTCGATTGTCTTTATATCATTCGGAGTCACCTAGTGCAG,9960 fluorescence intensity (a.u.)
13,CAAATTATGAGCCTGTTCACTTTGATGCTCTTTTCAACCACGGAGTCACCTAGTGCAG,8320 fluorescence intensity (a.u.)
14,TGCACTACTGTTTCTTTTTTCCTTCGATTATTGGCACGGACGGAGTCACCTAGTGCAG,13900 fluorescence intensity (a.u.)
15,ACCCACACACCGACAGCACCAACACACAGGTCCAGAAGAACGGAGTCACCTAGTGCAG,10400 fluorescence intensity (a.u.)
16,TCACGCGTCTTCCATTCTTGAACACCACCACCCCGAGCTACGGAGTCACCTAGTGCAG,8310 fluorescence intensity (a.u.)
17,TGTCTCTATGAACGTCCTTGTATTTTGCTCATGATTTAATCGGAGTCACCTAGTGCAG,10300 fluorescence intensity (a.u.)
18,TCCCGTACCGCTCCATCCGCGACCTCTCCCGGCGGTACGGCGGAGTCACCTAGTGCAG,8920 fluorescence intensity (a.u.)
19,CGGCTTCATCTCATCGAGCTCGACCGACCGACGCGCACATCGGAGTCACCTAGTGCAG,9070 fluorescence intensity (a.u.)
20,AGTAGAGTGCTGGTTGTCCTACTCCTCTGCATGCTTTTTTCGGAGTCACCTAGTGCAG,12400 fluorescence intensity (a.u.)
21,AAAACTGCCGTACGTCACATCCTATTTCCGTTTAAATTTCCGGAGTCACCTAGTGCAG,11000 fluorescence intensity (a.u.)
